Laboratory results reported in paper PMC10258794 (Journal of Medicinal Chemistry, 2023).
End groups of sequences in plain letters are not given here.

Experiment: general procedure: Fmoc solid-phase peptide synthesis; Tentagel S RAM resin (0.22–[…]); DIC/Oxyma
Conditions: whole synthesis, TFA salt

In order of falling isolated yield:
1. kkLLkLLkLLL  70.9%
2. KKLlkLLkLLl  66.2%
3. KklLKlLKlLL  65.7%
4. KKLLKLLKLLL  58.0%
5. KKLLkllKLLL  57.5%
6. kkLLKLLKLLl  54.5%
7. KKLlkllkLLL  53.4%
8. kkLLKLLKLLL  51.0%
9. KkllKllKLLL  49.2%
10. kkLLkLLkLLl  48.3%
11. KkLLKLLKLLL  47.7%
12. kkLLkLLKLLl  47.7%
13. kkLLkLLKLll  47.3%
14. KKllKLlKLlL  46.9%
15. KKllKLLklLL  46.3%
16. KkLLkLLKLLL  45.1%
17. kkLLkLLKLLL  45.0%
18. KKllKllKlll  44.6%
19. KKLLKllKLLL  44.4%
20. kKLLKLLKLLl  44.2%
21. KkllKLLKLLL  42.2%
22. KKLLkllkLLL  42.1%
23. kKLLkllKLLl  41.0%
24. kKlLkLlKlLl  40.8%
25. KKlLkLlKlLL  38.8%
26. (KKLLKLLKLLL)2  38.3%
27. KkLlKLLKLLL  38.3%
28. KKllKllKLLL  37.9%
29. KkllKLlKLLL  35.4%
30. KKllKllKlLL  34.9%
31. kkLLKLLKLll  32.7%
32. KkLlKlLkLlL  32.1%
33. KKIIKIIKIII  31.6%
34. KkllKlLKLLL  30.1%
35. RRLLRLLRLLL  27.5%
36. KklLKLLKllL  26.1%
37. kkllkllklll  24.1%
38. KKLlkLLklLL  18.0%
39. (*)KkllKLLKLLL  7.7%
40. (*)RRLLRLLRLLL  7.3%
41. RRIIRIIRIII  6.5%
42. (*)KkLlKLLKLLL  6.1%
43. (*)kKLLKLLKLLl  5.8%
44. (*)kkLLKLLKLLl  4.6%
45. (*)KkLLKLLKLLL  3.9%
46. (*)kkLLKLLKLLL  0.8%
